What follows is the remainder of the data, with few or none of the targets with a hit. Single values of this set are uncertain. The list shows a part of the results, in another mix than the full data.
compound: COC(=O)/C=C/c1ccccc1 [methyl cinnamate]; experiment: log2 ratio of iodoacetamide-alkyne labeling of the cysteine site, DMSO over compound (competition); higher = stronger covalent engagement of the cysteine by the compound, active = 1 or more; conditions: 500 µM; treatment time 1 h; system: HEK293T cell lysate
Outline: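 Three replicates, each with duplicate channels, were prepared from HEK293T lysate (2 mg/mL) treated with vehicle or electrophile at 500 µM for 1 h at ambient temperature. Iodoacetamide alkyne was then applied for 1 h, and samples were clicked to sCIP-TMT reagents, pooled, trypsin-digested overnight at 37 °C, enriched on streptavidin, acid-eluted and analysed on Orbitrap Eclipse LC-MS/MS with FAIMS, with FragPipe quantification. The log2 competition ratio per cysteine is the mean control-channel divided by the mean compound-channel reporter intensity. Cysteines quantified in only one replicate were left out.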

Sequences of proteins named here, by UniProt entry; tags and fusion partners are left off. A change or cut given only in a name is not applied to a line headed by its entry.
UniProt P09622, whole entry, looked up: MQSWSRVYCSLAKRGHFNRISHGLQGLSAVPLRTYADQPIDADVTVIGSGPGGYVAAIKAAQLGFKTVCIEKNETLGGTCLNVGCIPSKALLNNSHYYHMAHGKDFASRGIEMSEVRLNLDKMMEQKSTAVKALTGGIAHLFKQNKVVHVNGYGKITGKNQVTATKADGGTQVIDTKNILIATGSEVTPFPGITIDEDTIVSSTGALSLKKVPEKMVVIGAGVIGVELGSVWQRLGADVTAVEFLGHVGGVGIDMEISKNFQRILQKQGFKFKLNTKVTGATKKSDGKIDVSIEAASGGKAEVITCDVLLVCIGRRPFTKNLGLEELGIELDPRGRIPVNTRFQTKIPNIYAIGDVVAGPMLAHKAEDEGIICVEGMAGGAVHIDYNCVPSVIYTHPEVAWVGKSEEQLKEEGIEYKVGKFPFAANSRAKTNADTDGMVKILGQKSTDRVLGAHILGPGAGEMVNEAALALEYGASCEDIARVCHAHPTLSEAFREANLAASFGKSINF
UniProt P13489: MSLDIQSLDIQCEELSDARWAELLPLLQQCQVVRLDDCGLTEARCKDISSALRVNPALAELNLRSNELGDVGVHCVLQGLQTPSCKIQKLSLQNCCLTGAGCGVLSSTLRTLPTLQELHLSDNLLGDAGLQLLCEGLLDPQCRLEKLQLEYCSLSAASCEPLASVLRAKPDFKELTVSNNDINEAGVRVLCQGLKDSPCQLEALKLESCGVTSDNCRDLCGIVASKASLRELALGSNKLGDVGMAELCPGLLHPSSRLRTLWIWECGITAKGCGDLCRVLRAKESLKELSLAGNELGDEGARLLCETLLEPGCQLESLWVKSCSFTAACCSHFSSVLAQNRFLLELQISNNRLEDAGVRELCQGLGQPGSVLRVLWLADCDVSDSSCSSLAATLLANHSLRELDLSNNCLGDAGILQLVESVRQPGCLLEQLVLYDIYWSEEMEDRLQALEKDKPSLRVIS
UniProt P14618, whole entry, looked up: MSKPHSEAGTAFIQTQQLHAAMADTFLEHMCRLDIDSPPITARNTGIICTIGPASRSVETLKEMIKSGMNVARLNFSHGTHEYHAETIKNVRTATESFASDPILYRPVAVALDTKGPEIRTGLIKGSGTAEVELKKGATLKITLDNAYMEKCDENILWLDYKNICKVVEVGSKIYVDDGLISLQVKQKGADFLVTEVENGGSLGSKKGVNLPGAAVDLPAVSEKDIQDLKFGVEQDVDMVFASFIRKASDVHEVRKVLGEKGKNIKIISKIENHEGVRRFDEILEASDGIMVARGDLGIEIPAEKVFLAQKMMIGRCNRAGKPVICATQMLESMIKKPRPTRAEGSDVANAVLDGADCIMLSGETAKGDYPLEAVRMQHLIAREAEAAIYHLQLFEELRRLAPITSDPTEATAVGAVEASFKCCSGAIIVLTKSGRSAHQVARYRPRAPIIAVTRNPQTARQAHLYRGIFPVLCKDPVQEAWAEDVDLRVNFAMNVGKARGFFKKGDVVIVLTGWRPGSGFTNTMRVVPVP
UniProt P11274: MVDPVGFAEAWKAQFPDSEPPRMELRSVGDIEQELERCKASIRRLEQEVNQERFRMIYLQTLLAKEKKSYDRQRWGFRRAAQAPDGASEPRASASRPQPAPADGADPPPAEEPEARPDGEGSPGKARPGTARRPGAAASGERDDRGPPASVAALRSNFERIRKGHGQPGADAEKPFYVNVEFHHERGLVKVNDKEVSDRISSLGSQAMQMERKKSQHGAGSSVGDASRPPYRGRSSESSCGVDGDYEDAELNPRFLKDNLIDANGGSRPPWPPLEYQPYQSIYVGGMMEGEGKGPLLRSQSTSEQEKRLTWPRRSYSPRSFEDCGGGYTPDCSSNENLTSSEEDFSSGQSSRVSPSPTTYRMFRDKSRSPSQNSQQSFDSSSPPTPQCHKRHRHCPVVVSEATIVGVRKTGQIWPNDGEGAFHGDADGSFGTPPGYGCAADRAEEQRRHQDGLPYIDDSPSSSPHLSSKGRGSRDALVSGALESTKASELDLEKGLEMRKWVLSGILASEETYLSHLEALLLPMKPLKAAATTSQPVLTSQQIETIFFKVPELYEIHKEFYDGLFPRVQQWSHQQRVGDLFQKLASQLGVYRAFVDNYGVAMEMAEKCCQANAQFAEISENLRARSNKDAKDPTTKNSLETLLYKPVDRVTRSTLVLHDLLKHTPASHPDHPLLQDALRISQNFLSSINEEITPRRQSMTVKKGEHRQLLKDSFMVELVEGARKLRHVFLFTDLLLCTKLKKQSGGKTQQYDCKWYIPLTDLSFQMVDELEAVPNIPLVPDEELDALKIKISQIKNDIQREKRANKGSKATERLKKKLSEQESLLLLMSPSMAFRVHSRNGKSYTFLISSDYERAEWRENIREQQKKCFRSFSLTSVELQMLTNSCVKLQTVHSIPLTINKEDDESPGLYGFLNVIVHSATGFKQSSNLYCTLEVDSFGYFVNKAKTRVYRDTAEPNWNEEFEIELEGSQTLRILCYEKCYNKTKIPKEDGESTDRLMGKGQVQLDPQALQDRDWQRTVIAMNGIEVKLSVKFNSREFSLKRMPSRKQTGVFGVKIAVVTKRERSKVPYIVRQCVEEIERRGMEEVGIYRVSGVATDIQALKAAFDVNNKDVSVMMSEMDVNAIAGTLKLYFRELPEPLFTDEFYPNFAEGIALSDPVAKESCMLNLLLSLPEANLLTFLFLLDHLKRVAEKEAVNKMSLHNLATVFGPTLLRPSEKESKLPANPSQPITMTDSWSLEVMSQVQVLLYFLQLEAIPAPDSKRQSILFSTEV
UniProt P10768: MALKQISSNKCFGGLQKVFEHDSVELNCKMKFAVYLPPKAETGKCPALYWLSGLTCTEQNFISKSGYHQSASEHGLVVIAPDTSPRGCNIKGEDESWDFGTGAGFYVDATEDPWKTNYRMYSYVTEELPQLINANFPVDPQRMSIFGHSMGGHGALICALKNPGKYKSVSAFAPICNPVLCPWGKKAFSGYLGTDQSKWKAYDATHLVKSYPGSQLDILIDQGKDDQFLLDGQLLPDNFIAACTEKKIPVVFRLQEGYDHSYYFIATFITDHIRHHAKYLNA
UniProt P17844: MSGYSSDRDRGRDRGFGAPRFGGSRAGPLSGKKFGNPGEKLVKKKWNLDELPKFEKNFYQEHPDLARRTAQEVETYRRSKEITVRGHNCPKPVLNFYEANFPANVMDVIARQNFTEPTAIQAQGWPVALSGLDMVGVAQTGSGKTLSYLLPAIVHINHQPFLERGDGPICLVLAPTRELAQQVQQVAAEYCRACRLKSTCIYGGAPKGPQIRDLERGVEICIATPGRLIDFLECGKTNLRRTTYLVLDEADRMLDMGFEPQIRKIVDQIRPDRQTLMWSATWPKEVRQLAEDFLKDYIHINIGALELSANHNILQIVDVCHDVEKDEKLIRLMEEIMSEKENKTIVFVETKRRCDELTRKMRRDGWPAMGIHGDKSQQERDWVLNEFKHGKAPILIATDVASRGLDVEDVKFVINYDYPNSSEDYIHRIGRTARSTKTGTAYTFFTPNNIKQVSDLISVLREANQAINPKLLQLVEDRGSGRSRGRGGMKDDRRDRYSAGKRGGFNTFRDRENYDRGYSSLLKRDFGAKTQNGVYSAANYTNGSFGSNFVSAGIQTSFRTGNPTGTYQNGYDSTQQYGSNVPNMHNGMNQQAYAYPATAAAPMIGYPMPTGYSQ
UniProt P14868: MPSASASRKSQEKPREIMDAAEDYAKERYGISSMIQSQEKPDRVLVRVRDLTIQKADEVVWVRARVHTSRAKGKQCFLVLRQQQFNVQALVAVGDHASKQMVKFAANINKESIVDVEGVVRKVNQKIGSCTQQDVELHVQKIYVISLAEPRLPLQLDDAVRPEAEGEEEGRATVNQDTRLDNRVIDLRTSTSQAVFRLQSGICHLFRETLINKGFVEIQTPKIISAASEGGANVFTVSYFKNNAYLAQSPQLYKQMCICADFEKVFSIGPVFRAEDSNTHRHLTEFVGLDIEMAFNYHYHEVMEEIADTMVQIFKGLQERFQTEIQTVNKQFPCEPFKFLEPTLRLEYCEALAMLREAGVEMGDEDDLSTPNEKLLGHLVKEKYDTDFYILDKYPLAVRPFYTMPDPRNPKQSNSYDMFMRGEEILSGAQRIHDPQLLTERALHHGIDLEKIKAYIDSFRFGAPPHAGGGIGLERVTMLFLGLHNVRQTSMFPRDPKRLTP
UniProt P12004, whole entry, looked up: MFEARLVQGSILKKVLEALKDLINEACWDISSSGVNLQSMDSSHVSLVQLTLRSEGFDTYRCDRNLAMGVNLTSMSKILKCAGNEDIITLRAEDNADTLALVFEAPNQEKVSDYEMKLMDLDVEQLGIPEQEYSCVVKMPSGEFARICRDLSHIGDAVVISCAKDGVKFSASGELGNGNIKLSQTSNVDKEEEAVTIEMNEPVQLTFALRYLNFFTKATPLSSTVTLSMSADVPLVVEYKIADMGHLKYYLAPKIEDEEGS
UniProt P17655: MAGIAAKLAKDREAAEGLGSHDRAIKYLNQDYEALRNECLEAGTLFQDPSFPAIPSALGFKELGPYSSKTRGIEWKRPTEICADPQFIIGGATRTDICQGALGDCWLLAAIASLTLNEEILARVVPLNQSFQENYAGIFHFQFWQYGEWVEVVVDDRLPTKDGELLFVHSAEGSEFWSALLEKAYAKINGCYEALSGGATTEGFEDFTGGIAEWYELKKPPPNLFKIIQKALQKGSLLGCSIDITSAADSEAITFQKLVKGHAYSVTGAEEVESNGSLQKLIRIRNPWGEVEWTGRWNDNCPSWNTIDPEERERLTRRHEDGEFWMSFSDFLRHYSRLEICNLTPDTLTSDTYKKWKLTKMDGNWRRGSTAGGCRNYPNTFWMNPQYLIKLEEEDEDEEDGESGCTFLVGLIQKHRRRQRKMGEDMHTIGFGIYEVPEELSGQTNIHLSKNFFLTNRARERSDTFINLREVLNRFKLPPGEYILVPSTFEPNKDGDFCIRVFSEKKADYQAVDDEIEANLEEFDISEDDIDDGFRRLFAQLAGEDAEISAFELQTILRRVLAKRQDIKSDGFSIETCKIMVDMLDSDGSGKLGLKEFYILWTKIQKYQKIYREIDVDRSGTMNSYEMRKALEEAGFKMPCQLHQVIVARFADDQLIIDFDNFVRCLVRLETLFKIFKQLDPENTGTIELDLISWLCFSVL
UniProt P14625, whole entry, looked up: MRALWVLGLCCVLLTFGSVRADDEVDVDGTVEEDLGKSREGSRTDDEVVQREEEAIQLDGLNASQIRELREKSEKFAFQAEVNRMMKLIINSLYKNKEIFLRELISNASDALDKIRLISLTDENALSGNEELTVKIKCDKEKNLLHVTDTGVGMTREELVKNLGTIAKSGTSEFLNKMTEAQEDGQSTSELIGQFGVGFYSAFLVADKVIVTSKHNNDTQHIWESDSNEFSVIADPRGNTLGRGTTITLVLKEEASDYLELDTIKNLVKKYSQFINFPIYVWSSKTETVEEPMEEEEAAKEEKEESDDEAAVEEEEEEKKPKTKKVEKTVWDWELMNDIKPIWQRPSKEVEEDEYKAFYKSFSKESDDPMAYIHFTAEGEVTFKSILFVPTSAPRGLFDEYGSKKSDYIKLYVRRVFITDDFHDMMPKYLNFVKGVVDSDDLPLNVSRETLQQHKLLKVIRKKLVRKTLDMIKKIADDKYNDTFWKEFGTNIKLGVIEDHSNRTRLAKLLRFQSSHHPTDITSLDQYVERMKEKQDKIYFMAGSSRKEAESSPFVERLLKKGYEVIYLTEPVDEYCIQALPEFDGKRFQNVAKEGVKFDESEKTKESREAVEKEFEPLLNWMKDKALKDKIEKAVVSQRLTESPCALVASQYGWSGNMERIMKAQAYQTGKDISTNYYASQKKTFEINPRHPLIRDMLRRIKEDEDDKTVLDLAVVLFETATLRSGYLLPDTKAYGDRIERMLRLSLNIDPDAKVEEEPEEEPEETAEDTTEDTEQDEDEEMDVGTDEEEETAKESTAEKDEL
UniProt P13797: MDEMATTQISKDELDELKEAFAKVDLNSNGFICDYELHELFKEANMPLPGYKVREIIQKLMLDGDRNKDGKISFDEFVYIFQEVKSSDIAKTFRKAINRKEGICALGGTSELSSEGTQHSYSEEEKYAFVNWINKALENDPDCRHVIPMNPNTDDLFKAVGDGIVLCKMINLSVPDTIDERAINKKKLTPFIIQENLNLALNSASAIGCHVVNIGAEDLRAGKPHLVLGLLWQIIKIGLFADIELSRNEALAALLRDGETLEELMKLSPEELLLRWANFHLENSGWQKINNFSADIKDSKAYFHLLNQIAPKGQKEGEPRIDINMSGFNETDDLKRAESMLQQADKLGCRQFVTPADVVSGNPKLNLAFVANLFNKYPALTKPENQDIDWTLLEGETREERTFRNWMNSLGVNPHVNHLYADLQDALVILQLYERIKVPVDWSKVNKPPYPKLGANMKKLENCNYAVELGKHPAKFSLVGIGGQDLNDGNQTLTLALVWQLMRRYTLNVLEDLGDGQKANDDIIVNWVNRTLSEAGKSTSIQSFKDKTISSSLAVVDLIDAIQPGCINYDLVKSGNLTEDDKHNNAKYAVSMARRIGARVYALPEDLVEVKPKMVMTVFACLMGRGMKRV

log2 ratio of iodoacetamide-alkyne labeling, inactive:
DLAT C586 (UniProt P10515) -0.0135
SP1 C755 (UniProt P08047) 0.00509
TOP2A C405 (UniProt P11388) 0.0727
DLD C477 (UniProt P09622) -0.00307
RNH1 C30 (UniProt P13489) 0.0196
HSP90AB1 C590 (UniProt P08238) -0.0211
UniProt P14618_C49 0.0528
EEF2 C41 (UniProt P13639) 0.212
BCR C395 (UniProt P11274) 0.326
PEPD C482 (UniProt P12955) 0.14
NME1 C109 (UniProt P15531) 0.184
ESD C181 (UniProt P10768) -0.134
DDX5 C170 (UniProt P17844) 0.109
DARS C203 (UniProt P14868) 0.122
EPRS C692 (UniProt P07814) 0.238
EPRS C697 (UniProt P07814) 0.0346
PCNA C81 (UniProt P12004) 0.131
HSP90AA1 C572 (UniProt P07900) 0.334
CAPN2 C301 (UniProt P17655) 0.204
HSP90B1 C645 (UniProt P14625) 0.0462
PLS3 C33 (UniProt P13797) 0.19
U2AF1L5 C67 (UniProt P0DN76) 0.00948

Nothing new here: an excerpt of the list.
log2 ratio of iodoacetamide-alkyne labeling, inactive:
HSP90AB1 C590 (UniProt P08238) -0.0211
UniProt P14618_C49 0.0528
EEF2 C41 (UniProt P13639) 0.212
BCR C395 (UniProt P11274) 0.326
PEPD C482 (UniProt P12955) 0.14

Reference: the supplement of paper PMC11006884
